Here are results for 3 molecules from US20240425611A1.

Chains of the proteins cited; added tags and fusions are not shown. Residues count along the entry.
UniProt Q9NYJ7, residues 27-618: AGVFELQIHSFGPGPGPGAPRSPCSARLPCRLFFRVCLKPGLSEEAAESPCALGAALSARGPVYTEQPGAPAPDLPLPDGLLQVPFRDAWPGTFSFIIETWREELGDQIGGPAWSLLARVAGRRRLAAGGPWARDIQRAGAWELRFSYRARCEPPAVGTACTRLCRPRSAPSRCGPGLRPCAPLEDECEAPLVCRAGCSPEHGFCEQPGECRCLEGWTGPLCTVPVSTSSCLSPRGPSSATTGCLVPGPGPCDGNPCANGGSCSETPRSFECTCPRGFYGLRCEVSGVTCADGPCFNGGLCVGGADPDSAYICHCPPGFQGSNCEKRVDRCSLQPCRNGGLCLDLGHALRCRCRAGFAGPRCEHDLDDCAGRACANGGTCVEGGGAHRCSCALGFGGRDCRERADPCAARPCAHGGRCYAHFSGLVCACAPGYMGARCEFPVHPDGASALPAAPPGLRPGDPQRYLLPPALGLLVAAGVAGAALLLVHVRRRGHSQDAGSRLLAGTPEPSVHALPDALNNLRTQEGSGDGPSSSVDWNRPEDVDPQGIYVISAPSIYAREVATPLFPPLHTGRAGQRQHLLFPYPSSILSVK

No constants are given. Whether binding was seen depends on the method and setting. Some results given as binding are weak or reduced against the parent protein; the word gives no strength.

Test [1] addresses human DLL3 over-expressed on CHO-K1 cells (human) (UniProt Q9NYJ7). As to the kind of experiment: flow cytometry on CHO-K1 cells over-expressing human DLL3, PE anti-human IgG Fc.
For test [2] the target is unchanged. As to the kind of experiment: flow cytometry on CHO-K1 cells over-expressing human DLL3 (FIG. 2A). On the technique in general: In flow cytometry, cells or beads pass a laser one at a time.

B1: DLL3.2 (antibody, V domains shown)
VH: QVQLVQSGAEVKKPGASVKVSCKATDYIFSNYYIEWVRQAPGQGLEWMGEILPGTGNTVYNEKFKDRVTMTVDTSTSTVYMELSSLRSEDTAVYYCARWGDYALFANWGQGTLVTVSS
VL: DIQMTQSPSTLSASVGDRVTITCKASQNVGTNVAWYQQKPGKAPKALIYSASYRYSGVPSRFSGSGSGTEFTLTISSLQPDDFATYYCQQYNSYPFTFGQGTKLEIK
Consider B1, for which the binding result in test [1] and in test [2] was “binds” in each case.

B2: DLL3.4 (antibody, V domains shown)
VH: QVQLVQSGAEVKKPGASVKVSCKATDYIFSNYYIEWVRQAPGQGLEWMGEILPGTGNTVYNEKFKDRVTMTVDTSTSTVYMELSSLRSEDTAVYYCARWGDYALFANWGQGTLVTVSS
VL: DIQMTQSPSFLSASVGDRVTITCKASQNVGTNVAWYQQKPGKAPKPLIYSTSYRYSGVPSRFSGSGSGTEFTLTISSLQPEDFATYYCQQYNNYPLTFGGGTKVEIK
B2: the binding entry in test [1] and in test [2] was “binds” throughout.

B3: DLL3.3 (antibody, V domains shown)
VH: QVQLVQSGAEVKKPGASVKVSCKASGYTFTDYFMNWVRQAPGQGLEWMGVINPYNDITIYNQKFQGRVTMTVDRSTSTVYMELSSLRSEDTAVYYCAREGVLYDGYYEGAYWGQGTLVTVSS
VL: DIQLTQSPSFLSASVGDRVTITCKASQNVGIAVAWYQQKPGKAPKLLIYAASNRYTGVPSRFSGSGSGTEFTLTISSLQPEDFATYYCQQYSTYPYTFGQGTKLEIK
In the case of B3, the binding result in test [1] and in test [2] was “binds” each time.
